PubChem BioAssay AID1259308 | NCATS | 2017

Assay: 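Candidate targets for better recombinant protein yield in mammalian cells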 (primary screen)
System: human HEK293 embryonic kidney cells stably expressing firefly luciferase (HEK-CMV-Luc2-Hygro)
Reagents: single siRNA against human genes, 0.8 pmol siRNA per well
Timing: 72 h
Detection: 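Luciferase light (ONE-Glo) measured on one replicate plate set and viability (CellTiter-Glo) on the other, scaled to a negative control siRNA, with robust z-scores and luciferase per cell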
Scale: total luciferase, z-score and total luciferase, % of control: higher = more reporter protein produced
Active means: 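An siRNA counts as active if its total luciferase robust z-score exceeds 3; genes with two or more such siRNAs out of three were retested with fresh siRNAs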
Meaning of the calls: active = raised luciferase; inactive = no rise
Shown is an unselected part of about 59,000 deposited reagents. About 1,510 of all reagents (2.6%) count as active. 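Calls use total luciferase alone and ignore viability, so some active siRNAs may act by altering cell number.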 Reagents against one gene are numbered here. Not all columns of the deposit are shown. No sequences are given here.

The opening 2 records, to show the layout:
COL27A1 #1: total luciferase, z-score = -0.282; total luciferase, % of control = 76.3; outcome = inactive
COL27A1 #2: total luciferase, z-score = 1.88; total luciferase, % of control = 119; outcome = inactive

Main list, from the first entry:
COL27A1 #1: total luciferase, z-score = -0.282; total luciferase, % of control = 76.3; outcome = inactive
COL27A1 #2: total luciferase, z-score = 1.88; total luciferase, % of control = 119; outcome = inactive
COL27A1 #3: total luciferase, z-score = 0.366; total luciferase, % of control = 89.2; outcome = inactive
UXS1 #1: total luciferase, z-score = 0.385; total luciferase, % of control = 89.5; outcome = inactive
UXS1 #2: total luciferase, z-score = 1.15; total luciferase, % of control = 105; outcome = inactive
UXS1 #3: total luciferase, z-score = -0.123; total luciferase, % of control = 79.4; outcome = inactive
KRT37 #1: total luciferase, z-score = -0.178; total luciferase, % of control = 78.4; outcome = inactive
KRT37 #2: total luciferase, z-score = -0.821; total luciferase, % of control = 65.6; outcome = inactive
KRT37 #3: total luciferase, z-score = 0.968; total luciferase, % of control = 101; outcome = inactive
MID1IP1 #1: total luciferase, z-score = -0.29; total luciferase, % of control = 76.1; outcome = inactive
MID1IP1 #2: total luciferase, z-score = 1.45; total luciferase, % of control = 111; outcome = inactive
MID1IP1 #3: total luciferase, z-score = 1.51; total luciferase, % of control = 112; outcome = inactive
